Here are results for five sequences from article PMC9307627.

Amino acid sequences for entries named in this document (tags omitted). Residues count along the entry.
UniProt P02769, 25-607: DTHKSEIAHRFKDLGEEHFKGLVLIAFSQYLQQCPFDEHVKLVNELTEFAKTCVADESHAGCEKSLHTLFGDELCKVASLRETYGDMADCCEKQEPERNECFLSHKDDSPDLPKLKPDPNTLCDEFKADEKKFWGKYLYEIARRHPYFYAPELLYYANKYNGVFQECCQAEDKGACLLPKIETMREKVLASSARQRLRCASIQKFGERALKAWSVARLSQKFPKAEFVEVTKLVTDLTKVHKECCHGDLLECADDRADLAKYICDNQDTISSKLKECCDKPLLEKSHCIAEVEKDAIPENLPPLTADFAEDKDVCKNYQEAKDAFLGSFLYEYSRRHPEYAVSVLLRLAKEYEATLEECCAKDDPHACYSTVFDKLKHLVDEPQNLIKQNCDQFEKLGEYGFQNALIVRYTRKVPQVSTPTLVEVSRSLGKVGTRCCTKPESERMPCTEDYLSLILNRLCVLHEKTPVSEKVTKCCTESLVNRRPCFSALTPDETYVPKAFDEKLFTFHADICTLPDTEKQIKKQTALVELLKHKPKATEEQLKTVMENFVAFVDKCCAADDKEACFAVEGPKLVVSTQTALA

For some assays here: No signal at the amounts used counts as a negative. For some assays here: At least one verdict rests on a figure or table, not on a statement of the authors. For some assays here: Weaker means in comparison with the reference protein, sequence or condition of that experiment. For some assays here: Where a protein sequence is shown, tags need not be part of it. For some assays here: For at least one entry, the source does not settle the construct or the ends of the probe.

Assay in all cases: ELONA
The target in data set [1] is T1, full-length human sclerostin (FL hSOST) (human) (UniProt Q9BQB4).
T1 sequence (looked up): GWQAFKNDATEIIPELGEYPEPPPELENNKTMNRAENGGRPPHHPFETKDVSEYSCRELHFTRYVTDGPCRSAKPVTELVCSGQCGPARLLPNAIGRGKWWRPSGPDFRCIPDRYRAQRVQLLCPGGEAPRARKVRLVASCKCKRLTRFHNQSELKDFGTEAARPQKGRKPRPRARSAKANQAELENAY
The note with it: recombinant protein, residues 25-213, protein details: His6, label: biotin, single-stranded DNA.

For the next data set, the target named is BSA (UniProt P02769). The note with it: commercial protein; label: biotin; single-stranded DNA.
Data set [2] concerns the target T2, sclerostin loop3-4 Q145A,L146A,L147A (human) (UniProt Q9BQB4).
T2 sequence (looked up): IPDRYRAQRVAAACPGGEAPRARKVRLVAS
The note with it: residues 135-164; label: biotin; single-stranded DNA.

The target of data set [3] is T3, sclerostin loop3-6 G151A,E152A (human) (UniProt Q9BQB4).
T3 sequence (looked up): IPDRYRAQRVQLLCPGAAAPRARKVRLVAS
Particulars: residues 135-164; label: biotin; single-stranded DNA.

Data set [4] has as its target T4, sclerostin loop3-1 I135A,P136A,D137A (human) (UniProt Q9BQB4).
T4 sequence (looked up): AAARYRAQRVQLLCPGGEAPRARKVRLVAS
Particulars: residues 135-164; label: biotin; single-stranded DNA.

For data set [5], the target named is T5, sclerostin loop3-8 R157A,K158A,V159A (human) (UniProt Q9BQB4).
T5 sequence (looked up): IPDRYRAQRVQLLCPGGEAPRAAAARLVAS
The note with it: residues 135-164; label: biotin; single-stranded DNA.

The target in data set [6] is T6, sclerostin loop3-2 R138A,Y139A,R140A (human) (UniProt Q9BQB4).
T6 sequence (looked up): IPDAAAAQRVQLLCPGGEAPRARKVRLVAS
The note with it: residues 135-164; label: biotin; single-stranded DNA.

Data set [7] has as its target T7, sclerostin loop3-3 Q142A,R143A,V144A (human) (UniProt Q9BQB4).
T7 sequence (looked up): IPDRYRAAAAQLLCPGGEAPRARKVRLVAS
The note with it: residues 135-164; label: biotin; single-stranded DNA.

Consider “AGAGTTATAAATGGTAGAGGGAGCGGGCTAACCGGCTGTG [aptamer candidate 136]”, for which the binding result in data set [1] (specific to loop3, Kd N/A) is given as “binds”.
Consider “CGGGGTGTGGGTTCGTCGTTAGCTTGATTTGGCAGCTGCC [aptscl56]”, for which the binding result with BSA is reported as “no binding”; in data set [2] it was “binds more weakly”; in data set [3] it was “binds”; in data set [4], “binds more weakly”; in data set [5] it was “binds”; in data set [6] it was “binds”. Besides, the binding result in data set [7] is on record as “binds”.
Consider “GGGGGTTTCCAGGGGGTCCTTGATGCTAGATTGTATG [aptamer candidate 36]”, for which the binding result in data set [1] (specific to loop3, Kd N/A) is “binds”.
As to “GTCAGCTCTTGTGGTCCTCGCAGCGAAAAGGCTCTGGCGG [aptamer candidate 2]”, the binding result in data set [1] (specific to loop3, no Kd given) was “binds”.
“TAGGATTGGCGGGCATTGCACTCCTTCAGGAGGTACGGTC [aptamer candidate 140]”: the binding result in data set [1] (specific to loop3, Kd N/A) is “binds”.
